# Data from PubChem BioAssay AID328 (DTP/NCI, 2004).
# The list does not hold the whole screen: its compounds were picked by chemical class. Other doses and runs of a compound may be missing. T/C gives the treated animals as a percentage of the vehicle group. Some entries give survivors of the animals treated and no T/C: the source files T/C as zero there, which appears to mark a toxic dose or a test without result, not a measured value. Some survivor counts are full or nearly so, which does not show that the dose was tolerated: the source hardly ever lists a survival T/C far under the control, and the zero likely stands for such cases as well. Survivors were counted at the toxicity check, usually on the fifth day, unless a day is given; later deaths do not show. Schedules are NCI's codes, read here as Q, the interval in days (D) or hours (H), X, the number of doses. Where survival is the endpoint, this PubChem deposit counts one and a half times the control or more as active, and values a quarter to a half above the control carry no call in these data; other NCI protocols may use other cut-offs. Some entries hold several experiments; the values are given in rising order. Some entries show no survivor count and are marked so; the dose need not have been tolerated. Some T/C values are followed by the survivors on the day toxicity was checked, most often the fifth; without a count or a note in brackets, all were alive then.
# Test system: BDF1 mice, P388 leukemia ip, median survival T/C
# Assay: NCI In Vivo Anticancer Drug Screen. Data for tumor model P388 Leukemia (intraperitoneal) in B6D2F1 (BDF1) mice
# Settings: T/C endpoint: median survival time, higher T/C = longer survival
# In short: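 Survival ratio, drug arm over vehicle arm, in mice with a transplanted tumour.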
# [1] = dose: 25.0 mg/kg/injection, schedule: Q04DX003 (ip), vehicle: saline with Tween-80
# [2] = dose: 100.0 mg/kg/injection, schedule: Q01DX009 (ip), vehicle: saline with Tween-80
# [3] = dose: 4.0 mg/kg/injection, schedule: Q01DX010 (ip), vehicle: saline
structure (smiles),measurement,setting,value
NC(=O)CCCc1ccc(N(CCCl)CCCl)cc1,T/C,"dose: 0.37 mg/kg/injection, schedule: Q01DX009 (ip), vehicle: saline with Tween-80",92 % of control [5 of 6 alive]
same,T/C,"dose: 0.75 mg/kg/injection, schedule: Q01DX009 (ip), vehicle: saline with Tween-80",115 % of control
same,T/C,"dose: 0.92 mg/kg/injection, schedule: Q04DX003 (ip), vehicle: saline with Tween-80",90 % of control
same,T/C,"dose: 1.3 mg/kg/injection, schedule: Q04DX003 (ip), vehicle: saline with Tween-80",90 % of control
same,T/C,"dose: 1.5 mg/kg/injection, schedule: Q01DX009 (ip), vehicle: saline with Tween-80",123 and 145 % of control
same,T/C,"dose: 2.0 mg/kg/injection, schedule: Q04DX003 (ip), vehicle: saline with Tween-80",104 % of control
same,T/C,"dose: 3.0 mg/kg/injection, schedule: Q01DX009 (ip), vehicle: saline with Tween-80",154 % of control
same,T/C,"dose: 3.0 mg/kg/injection, schedule: Q04DX003 (ip), vehicle: saline with Tween-80",116 % of control
same,T/C,"dose: 4.4 mg/kg/injection, schedule: Q04DX003 (ip), vehicle: saline with Tween-80",125 and 150 % of control
same,T/C,"dose: 4.8 mg/kg/injection, schedule: Q04DX003 (ip), vehicle: saline with Tween-80",186 % of control
same,T/C,"dose: 6.0 mg/kg/injection, schedule: Q01DX009 (ip), vehicle: saline with Tween-80",250 % of control
same,T/C,"dose: 6.25 mg/kg/injection, schedule: Q01DX009 (ip), vehicle: saline with Tween-80",203 % of control
same,T/C,"dose: 6.7 mg/kg/injection, schedule: Q04DX003 (ip), vehicle: saline with Tween-80",172 % of control
same,T/C,"dose: 7.2 mg/kg/injection, schedule: Q04DX003 (ip), vehicle: saline with Tween-80",186 % of control
same,T/C,"dose: 10.0 mg/kg/injection, schedule: Q04DX003 (ip), vehicle: saline with Tween-80",222 % of control
same,T/C,"dose: 11.0 mg/kg/injection, schedule: Q04DX003 (ip), vehicle: saline with Tween-80",200 and 209 % of control
same,T/C,"dose: 12.5 mg/kg/injection, schedule: Q01DX009 (ip), vehicle: saline with Tween-80",176 % of control
same,T/C,"dose: 16.0 mg/kg/injection, schedule: Q04DX003 (ip), vehicle: saline with Tween-80",245 % of control
same,T/C,"dose: 16.5 mg/kg/injection, schedule: Q04DX003 (ip), vehicle: saline with Tween-80",233 % of control
same,survivor count,"dose: 25.0 mg/kg/injection, schedule: Q01DX009 (ip), vehicle: saline with Tween-80",5 of 6
same,T/C,[1],168 % of control
same,survivor count,[1],6 of 6
same,T/C,"dose: 35.0 mg/kg/injection, schedule: Q04DX003 (ip), vehicle: saline with Tween-80",222 % of control
same,survivor count,"dose: 37.5 mg/kg/injection, schedule: Q04DX003 (ip), vehicle: saline with Tween-80",6 of 6
ClCC1CS1 (stereo not drawn),T/C,"dose: 37.5 mg/kg/injection, schedule: Q04DX003 (ip), vehicle: saline sonified",88 % of control
same,T/C,"dose: 44.0 mg/kg/injection, schedule: Q01DX009 (ip), vehicle: saline with Tween-80",118 % of control
same,T/C,"dose: 66.0 mg/kg/injection, schedule: Q01DX009 (ip), vehicle: saline with Tween-80",186 % of control
same,T/C,"dose: 75.0 mg/kg/injection, schedule: Q04DX003 (ip), vehicle: saline sonified",88 % of control
same,T/C,"dose: 88.0 mg/kg/injection, schedule: Q04DX003 (ip), vehicle: saline sonified",109 % of control
same,T/C,[2],209 % of control
same,T/C,"dose: 100.0 mg/kg/injection, schedule: Q04DX003 (ip), vehicle: saline sonified",118 % of control
same,T/C,"dose: 132.0 mg/kg/injection, schedule: Q04DX003 (ip), vehicle: saline sonified",131 % of control
same,T/C,"dose: 150.0 mg/kg/injection, schedule: Q01DX009 (ip), vehicle: saline with Tween-80",245 % of control
same,T/C,"dose: 150.0 mg/kg/injection, schedule: Q04DX003 (ip), vehicle: saline sonified",100 % of control
same,T/C,"dose: 200.0 mg/kg/injection, schedule: Q04DX003 (ip), vehicle: saline sonified",104 and 154 % of control
same,T/C,"dose: 300.0 mg/kg/injection, schedule: Q04DX003 (ip), vehicle: saline sonified",116 and 163 % of control
same,T/C,"dose: 400.0 mg/kg/injection, schedule: Q04DX003 (ip), vehicle: saline sonified",181 % of control
Cc1[nH]c(=O)[nH]c(=O)c1N(CCCl)CCCl,T/C,"dose: 0.5 mg/kg/injection, schedule: Q01DX010 (ip), vehicle: saline",109 and 158 % of control
same,T/C,"dose: 1.0 mg/kg/injection, schedule: Q01DX010 (ip), vehicle: saline",150 and 175 % of control
same,T/C,"dose: 2.0 mg/kg/injection, schedule: Q01DX010 (ip), vehicle: saline",129 and 150 % of control
same,T/C,[3],218 % of control
same,survivor count,[3],5 of 6
CCCC1OP(N)(=O)OCC1CC (stereo not drawn),T/C,[2],96 % of control
same,T/C,"dose: 200.0 mg/kg/injection, schedule: Q01DX009 (ip), vehicle: saline with Tween-80",88 % of control
same,T/C,"dose: 400.0 mg/kg/injection, schedule: Q01DX009 (ip), vehicle: saline with Tween-80",105 % of control
CN[N+](=O)[O-],T/C,"dose: 12.5 mg/kg/injection, schedule: Q01DX001 (ip), vehicle: saline with Tween-80",107 % of control [survivor count not shown]
same,T/C,"dose: 25.0 mg/kg/injection, schedule: Q01DX001 (ip), vehicle: saline with Tween-80",110 % of control [survivor count not shown]
same,T/C,"dose: 50.0 mg/kg/injection, schedule: Q01DX001 (ip), vehicle: saline with Tween-80",136 % of control [survivor count not shown]
O=C(OCCNCCCl)c1ccccc1,T/C,"dose: 100.0 mg/kg/injection, schedule: Q01DX009 (ip), vehicle: saline",100 % of control
same,T/C,"dose: 100.0 mg/kg/injection, schedule: Q04DX003 (ip), vehicle: saline",104 % of control
same,T/C,"dose: 200.0 mg/kg/injection, schedule: Q04DX003 (ip), vehicle: saline",109 % of control
CC(C)OP(C)(O)=S.CC(N)c1ccccc1 (stereo not drawn),T/C,"dose: 50.0 mg/kg/injection, schedule: Q01DX005 (ip), vehicle: saline",94 % of control
same,T/C,"dose: 100.0 mg/kg/injection, schedule: Q01DX005 (ip), vehicle: saline",101 % of control
same,T/C,"dose: 200.0 mg/kg/injection, schedule: Q01DX005 (ip), vehicle: saline",101 % of control
NP1(=O)C=CNC(=O)N1 (stereo not drawn),T/C,"dose: 50.0 mg/kg/injection, schedule: Q01DX001 (ip), vehicle: saline",100 % of control
same,T/C,"dose: 100.0 mg/kg/injection, schedule: Q01DX001 (ip), vehicle: saline",101 % of control
same,T/C,"dose: 200.0 mg/kg/injection, schedule: Q01DX001 (ip), vehicle: saline",106 % of control
same,T/C,"dose: 400.0 mg/kg/injection, schedule: Q01DX001 (ip), vehicle: saline",93 % of control
